Laboratory results: PubChem BioAssay AID1259425 (University of Nebraska Medical Center, 2018)
Here is a random part of about 14,000 reagents. Not all columns of the deposit are shown. No sequences are given here. The record does not give: the time to read-out.

Test: 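Seek colon cancer weak points whose silencing resembles KSR1 loss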 (primary screen)
Cells: HCT116 human colon cancer cells
Knock-down reagent: siRNA pool against human genes, 50 nM siRNA
Measurement: 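After 50 nM siRNA pool, branched-DNA assay measures six marker transcripts per well, minus blank, normalised to the geometric mean of two housekeeping transcripts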
Reading the numbers: BNIP3L mRNA: higher = more BNIP3L transcript after knockdown; NDRG1 mRNA: higher = more NDRG1 transcript after knockdown

TSKU: BNIP3L mRNA, set 1 = 0.286; NDRG1 mRNA, set 1 = 0.387
FGF22: BNIP3L mRNA, set 1 = 0.143; NDRG1 mRNA, set 1 = 0.992
ZNF106: BNIP3L mRNA, set 1 = 0.0516; NDRG1 mRNA, set 1 = 0.134
PTTG2: BNIP3L mRNA, set 1 = 0.191; NDRG1 mRNA, set 1 = 0.177
VN1R1: BNIP3L mRNA, set 1 = 0.1; NDRG1 mRNA, set 1 = 0.111
RIC1: BNIP3L mRNA, set 1 = 0.106; NDRG1 mRNA, set 1 = 0.209
ZHX3: BNIP3L mRNA, set 1 = 0.128; NDRG1 mRNA, set 1 = 0.176
SUSD2: BNIP3L mRNA, set 1 = 0.121; NDRG1 mRNA, set 1 = 0.144
SLC5A1: BNIP3L mRNA, set 1 = 0.117; NDRG1 mRNA, set 1 = 0.46
AFF2: BNIP3L mRNA, set 1 = 0.0987; NDRG1 mRNA, set 1 = 0.176
NLRP1: BNIP3L mRNA, set 1 = 0.12; NDRG1 mRNA, set 1 = 0.149
YWHAH: BNIP3L mRNA, set 1 = 0.0763; NDRG1 mRNA, set 1 = 0.0861
JRK: BNIP3L mRNA, set 1 = 0.0579; NDRG1 mRNA, set 1 = 0.172
TAAR5: BNIP3L mRNA, set 1 = 0.143; NDRG1 mRNA, set 1 = 0.496
ZBED8: BNIP3L mRNA, set 1 = 0.0643; NDRG1 mRNA, set 1 = 0.21
PAF1: BNIP3L mRNA, set 1 = 0.0664; NDRG1 mRNA, set 1 = 0.395
KRT12: BNIP3L mRNA, set 1 = 0.0848; NDRG1 mRNA, set 1 = 0.0826
REEP5: BNIP3L mRNA, set 1 = 0.156; NDRG1 mRNA, set 1 = 0.172
FCRLA: BNIP3L mRNA, set 1 = 0.0893; NDRG1 mRNA, set 1 = 0.155

Entries above whose gene name begins with R or r:
RIC1: BNIP3L mRNA, set 1 = 0.106; NDRG1 mRNA, set 1 = 0.209
REEP5: BNIP3L mRNA, set 1 = 0.156; NDRG1 mRNA, set 1 = 0.172
